Measurements taken from PubChem BioAssay AID445 (National Center for Advancing Translational Sciences (NCATS), 2006).
The list shows a part of the results. These are further read-outs of the screen, such as a control signal, another cell line or another target. No call is given for them. Most of these compounds were active or inconclusive in the main read-out, so they are no random draw. Words in brackets tell the shape of the fitted curve; partial curves, single points and poor fits give uncertain potencies.

Assay: IkB Signaling
Settings: ABC-DLBCL IkBa-CBG/CBR dual luciferase ratio (green luciferase fused to IkBa over red control in OCI-Ly3 lymphoma cells), 4 h; measured here: control luc red channel unless noted
Source text: NIH Molecular Libraries Screening Centers Network [MLSCN]
NIH Chemical Genomics Center [NCGC]
Nuclear factor kappa-B (NF-kappa-B) plays an important role in normal B cell development and survival. Diffuse large B cell lymphoma (DLBCL) is the most commonly observed type of non-Hodgkin's lymphoma. Gene expression analysis has identified an activated B cell-like subtype of DLBCL (ABC-DLBCL) which expresses known NF-kappa-B target genes. […] However, targets upstream of IKK have been largely unexplored and so nodes upstream of IKK in the NF-kappa-B pathway remain untested due to the lack of chemical probes.
A cell-sensor assay for I-kappa-B-alpha stabilization was developed with NIH investigator Dr. R. Eric Davis in Dr. Louis M. Staudt's laboratory. The assay uses green (CBG68) and red (CBR) emitting beetle luciferases [Chroma-Glo(TM) developed by Promega Corp.] where the green luciferase is fused to I-kappa-B-alpha and the red luciferase is present in its native state. Both luciferase genes are stably present in the OCI-Ly3 human ABC DLBCL cell line, but their expression is under the control of tetracycline-inducible promoters. Following the addition of doxycycline to induce expression of the luciferases, the green luminescence in control cultures rises only slowly because the CBG fusion partner I-kappa-B-alpha is targeted by IKK activity for rapid degradation. In contrast, green luminescence rises rapidly in the presence of proteasome inhibitors or IKK inhibitors. The rise in red luminescence of CBR is not affected by proteasome or IKK inhibitors, and serves as normalization for cell number and nonspecific effects. Compounds were screened as a concentration-titration series that ranged from 57 uM to 0.7 nM.
NCGC Assay Protocol Summary:
Cells were seeded in 1536-well plates at 5000 cells/3ul in IMDM medium containing 0.5% FBS, w/o phenol red, L-glutamine, 25 mM HEPES, 3 mg/ml sodium bicarbonate. After centrifugation for 1 min. at 1000 rpm, 23 nl of compounds or DMSO were delivered to each well using a pin tool. Then 1ul 80ng/ml doxycycline was dispensed into white solid 1536-well plates and the plates were incubated at 37C/5% C02 in a cell incubator for 4 hrs. Then 4 ul Chroma-Glo luminescent substrate mix (Promega) was added to each well. The plate was incubated at R.T. for 10-15 min. The plates were measured on a ViewLux plate reader for green luminescence (540/20 nm filter) and red luminescence (618/8 nm filter). The green and red luminescent signals were corrected for red and green luminescence filter overlap using previously determined filter calibration constants (determined using the procedure outlined in the Promega Technical Manual). The %Activity was determined from the ratio of corrected green/red luminescent values. Green luminescent and ratio %Activity was determined by normalizing to the difference in signal between basal cells (0% Activity) and cells incubated with 10 uM of the proteasome inhibitor MG-132 (100% Activity). Red luminescent %Activity was normalized to the difference between red luminesence in basal cells (0%Activity) and zero luminescence (-100% Activity).
Concentration-response curves were fitted to the signals arising from the green luminescence (I-kappa-B-alpha-luciferase fusion; IkB-luc) and the red luminescence (unfused luciferase; luc) as well as the calculated ratio. The concentration-effect curves were then classified based on curve quality (r2), response magnitude and degree of measured activity. Compounds were then categorized based on their concentration-response curves for all three datasets (Ikb-luc, luc and ratio).
Keywords: IKK, I-kappa-B, IkB, IkBa, cytotoxicity, luminescence, MLSMR, MLSCN, NIH Roadmap, qHTS, NCGC
For `N=C1C(c2ccccc2)=C(O)C2CCc3ccccc3N12` (configuration not stated), the AC50 was 25.1 µM [falling, partial curve]. For `CCOc1ccc(C2C(=O)N(C3CCCCC3)CC(=O)N2CCC2=CCCCC2)cc1OC` (configuration not stated), the AC50 was 3.16 µM [falling, partial curve]. With `CCOc1ccccc1NC(=O)CSC1=Nc2ccccc2C2=NC(CC(=O)NCc3ccc4c(c3)OCO4)C(=O)N12` (configuration not stated) the AC50 was 31.6 µM [falling, partial curve]. For `Cc1nn(CC(=O)NCCc2ccccc2)c(=O)c2c1sc1ccccc12`, the AC50 was 7.94 µM [falling, partial curve]. In the case of `O=c1cc(-c2ccccc2)n2c(SCc3ccc(Br)cc3)nnc2[nH]1`, the AC50 is reported as 0.794 µM [rising, full curve]. In the case of `c1ccc(-c2onc3cc4c(cc23)OCCO4)cc1`, the AC50 is reported as 20 µM [falling, single point]. In the case of `COc1ccc(-n2ccnc(NCCc3ccc(Cl)cc3)c2=O)cc1OC`, the AC50 is reported as 12.6 µM [falling, partial curve]. In the case of `CCN(Cc1ccccc1)Cc1c(O)ccc2oc(C)c(C(=O)Nc3ccccc3C)c12`, the AC50 is reported as 12.6 µM [falling, partial curve]. With `CCn1cc(C(=O)N2CCN(c3ccc(OC)cc3)CC2)c2cc(OC)c(OC)cc2c1=O` the AC50 was 0.0398 µM [falling, partial curve]. With `CCOc1ccccc1C1C(C(=O)Nc2ccccc2)=C(C)Nc2c(C(=O)Nc3ccc(F)cc3)cnn21` (configuration not stated) the AC50 was 10 µM [falling, partial curve]. For `CCOc1ccc(-c2cccc(NS(=O)(=O)c3ccccc3C(F)(F)F)c2)nn1`, the AC50 was 0.00794 µM [falling, full curve]. With `O=S(=O)(c1ccc2nc(Nc3cccc(F)c3)ccc2c1)N1CCCC1` the AC50 was 20 µM [falling, partial curve, poor fit]. With `Cc1ccccc1Cn1c2ccccc2c2cnn(CC(=O)N3CCC(C)CC3)c(=O)c21` the AC50 was 7.94 µM [falling, partial curve]. For `Cc1ccc(S(=O)(=O)NCC(Nc2cccc(Cl)c2)c2ccccc2)cc1` (configuration not stated), the AC50 was 20 µM [falling, single point]. With `O=C(CCCn1c(=S)[nH]c2cc3c(cc2c1=O)OCO3)N1CCN(c2ccccn2)CC1` the AC50 was 20 µM [falling, partial curve]. In the case of `CCn1c(C(=O)N2CCCC(C(=O)N3CCN(c4ccccc4)CC3)C2)cc2sccc21` (configuration not stated), the AC50 is reported as 12.6 µM [falling, partial curve]. For `C=CCn1c(NC(C)c2cc(Cl)ccc2O)nc2ccccc21` (configuration not stated), the AC50 was 25.1 µM [falling, partial curve]. In the case of `CCCCn1c(=O)n(CC(=O)NCc2ccc(C)cc2)c(=O)c2c1nc(CO)n2CCC`, the AC50 is reported as 15.8 µM [falling, partial curve]. For `COc1ccc2c(c1)cc(CNc1ccc(OC)c(OC)c1)c(=O)n2CC(=O)Nc1ccc(F)cc1`, the AC50 was 3.98 µM [falling, full curve]. In the case of `CCOC(=O)c1c(C)[nH]c(C)c1C(=O)Cn1nnc(-c2ccccc2C)n1`, the AC50 is reported as 25.1 µM [falling, single point]. With `O=C(Nc1nc(-c2nc3ccccc3s2)cs1)c1ccc(S(=O)(=O)N2CCOCC2)cc1` the AC50 was 3.16 µM [falling, full curve]. With `Cc1c(C(=O)Nc2ccc(F)c(F)c2)oc2ccc(S(=O)(=O)N3CCCCC3)cc12` the AC50 was 6.31 µM [falling, partial curve]. In the case of `O=S(=O)(NCC(c1ccco1)S(=O)(=O)c1ccccc1)c1ccccc1` (configuration not stated), the AC50 is reported as 3.16 µM [rising, full curve]. With `COc1ccc(N2CCN(C(=O)CCc3c(C)nc4c(-c5ccccc5)c(C)nn4c3C)CC2)cc1` the AC50 was 15.8 µM [falling, partial curve]. With `CC1=C(C(N)=O)C(c2ccc(C(C)C)cc2)n2nc(SCc3ccccc3)nc2N1` (configuration not stated) the AC50 was 6.31 µM [falling, partial curve, poor fit]. With `O=S(=O)(c1ccc(Br)s1)N1CCN(c2ccccn2)CC1` the AC50 was 31.6 µM [falling, partial curve]. For `CCOc1ccc(S(=O)(=O)N(CC(=O)Nc2cccnc2)c2ccccc2)cc1`, the AC50 was 15.8 µM [falling, partial curve]. For `COc1ccc(CNC(=O)CCc2cn(Cc3cc(C)ccc3C)c3ccccc23)cc1OC`, the AC50 was 12.6 µM [falling, partial curve]. For `O=c1cc(-c2ccccc2)nc(SCc2nc(-c3ccc(C(F)(F)F)cc3)no2)[nH]1`, the AC50 was 1.26 µM [rising, partial curve]. With `O=C(Cn1ccn(-c2cccc(Cl)c2)c(=O)c1=O)NCCc1ccccc1` the AC50 was 12.6 µM [falling, single point]. With `COc1cccc(NC(=O)CSc2cc(=O)n(C)c3ccc(Cl)cc23)c1` the AC50 was 0.0126 µM [falling, full curve, poor fit]. With `CCCCNC(=O)C1CCN(C(=O)N2CC(C)Oc3ccc(Cl)cc32)CC1` (configuration not stated) the AC50 was 25.1 µM [falling, single point]. With `CCOc1ccccc1NC(=O)Cc1coc2c(C)c(C)ccc12` the AC50 was 2.51 µM [falling, partial curve]. With `COc1ccc(NC(=O)c2c(C(=O)Nc3ccccc3)sc3nc(C)cc(=O)n23)cc1` the AC50 was 2.51 µM [falling, full curve]. For `COc1ccc(OCC(=O)Nc2cccc3cccnc23)cc1`, the AC50 was 39.8 µM [falling, single point]. In the case of `N#C/C(=C\c1ccc(F)cc1)C(=O)NCC1CCCO1` (configuration not stated), the AC50 is reported as 39.8 µM [falling, partial curve, poor fit]. For `Cn1cnc(S(=O)(=O)N2CCCC(C(=O)NCc3ccccc3Cl)C2)c1` (configuration not stated), the AC50 was 7.94 µM [rising, single point] [measured here: IkB-luc green channel]. With `Cc1cccc(N2CCN(C(=O)c3cc4c(=O)n(C)c5ccccc5c4n3C)CC2C)c1` (configuration not stated) the AC50 was 2.51 µM [falling, full curve]. For `COC(=O)c1ccc(NC(=O)CCc2c(C)nc3c(c(C)nn3-c3ccc(C)cc3)c2C)cc1`, the AC50 was 10 µM [falling, partial curve]. For `COc1ccccc1-c1cc(C(=O)NCc2cccs2)no1`, the AC50 was 0.00316 µM [falling, full curve]. With `CCOC(=O)C1CCN(c2c(C(=O)c3ccc(OCC)cc3)cnc3ccc(OC)cc23)CC1` the AC50 was 15.8 µM [falling, partial curve]. In the case of `Oc1c(C(c2ccccc2F)N2CCOCC2)sc2nc(-c3ccco3)nn12` (configuration not stated), the AC50 is reported as 10 µM [rising, partial curve]. For `CCN(c1ccccc1)S(=O)(=O)c1ccc2[nH]cc(C(=O)NC3CCCCC3)c(=O)c2c1`, the AC50 was 20 µM [falling, partial curve]. With `CCOC(=O)N1CCN(C(=O)CSc2nnc(-c3cccc(OC)c3)o2)CC1` the AC50 was 3.98 µM [falling, partial curve]. With `COc1c(C)cc(S(=O)(=O)Nc2cccc(-c3ccc(N4CCOCC4)nn3)c2)c(C)c1C` the AC50 was 39.8 µM [falling, partial curve]. For `COc1ccc(OCc2nnc3n2N=C(c2ccc(Br)cc2)CS3)cc1`, the AC50 was 25.1 µM [falling, single point]. In the case of `Nc1nc(NCc2cccs2)nn1-c1ccccc1`, the AC50 is reported as 31.6 µM [falling, single point]. For `O=C(COC(=O)c1cc2ccccc2o1)c1ccccc1`, the AC50 was 1.58 µM [falling, full curve, poor fit]. With `COc1ccc(-n2c(=O)c3ccccc3n(CC(=O)NCCc3ccccc3)c2=O)c(OC)c1` the AC50 was 0.0398 µM [falling, full curve, poor fit]. For `Cc1ccc(NC(=O)CCc2c(C)nc3c(-c4ccccc4)c(C)nn3c2C)c(C)c1`, the AC50 was 15.8 µM [falling, partial curve]. In the case of `Cc1cccc(-n2cc(-c3ccccc3)c3c(NC(C)C)ncnc32)c1`, the AC50 is reported as 39.8 µM [falling, partial curve]. With `CC1CCN(S(=O)(=O)c2cn(CC(=O)Nc3ccc(F)c(Cl)c3)c(=O)c3ccccc23)CC1` the AC50 was 10 µM [falling, partial curve]. For `O=C(CSc1nccn1-c1cccc(Cl)c1)Nc1cccc(C(F)(F)F)c1`, the AC50 was 12.6 µM [falling, partial curve, poor fit]. For `O=C(Nc1ccccc1N1CCN(C(=O)c2ccccc2)CC1)c1ccc2c(c1)OCO2`, the AC50 was 10 µM [falling, partial curve]. For `CCCN1C(=O)C(O)(CC(=O)c2ccc(CC)cc2)c2cc(Br)ccc21` (configuration not stated), the AC50 was 25.1 µM [falling, partial curve]. With `C=CCn1c(SCC(=O)N2CCOCC2)nc2scc(-c3ccco3)c2c1=O` the AC50 was 7.94 µM [falling, partial curve]. For `Cc1cccc(OCC(=O)Nc2nonc2-c2ccc(Br)cc2)c1C`, the AC50 was 2.51 µM [rising, partial curve, poor fit]. With `COc1ccc(C(=O)Nc2ccccc2C(N)=O)cc1` the AC50 was 12.6 µM [falling, partial curve]. In the case of `CCOc1ccc(CC(=O)Nc2ccc3c(c2)N(C)C(=O)c2ccccc2S3)cc1OCC`, the AC50 is reported as 20 µM [falling, partial curve]. With `CCc1ccc(OCC(=O)N(Cc2ccc(C)cc2)Cc2ccco2)cc1` the AC50 was 31.6 µM [falling, single point]. With `Cc1cccc(C)c1-n1ncc(C(=O)NCc2ccc3c(c2)OCO3)c1C1CCN(C(=O)OC(C)(C)C)CC1` the AC50 was 15.8 µM [falling, partial curve]. For `CCOC(=O)CSC1=C(C#N)C(c2ccco2)C(C(=O)Nc2cccc(C(F)(F)F)c2)=C(C)N1` (configuration not stated), the AC50 was 31.6 µM [falling, partial curve].
